Results on 96 compounds are retold here after PubChem BioAssay AID651660 (Broad Institute, 2012).

Chains of the proteins cited; added tags and fusions are not shown. Lines headed by an entry give the natural chain unless they say otherwise; changes in a name come on top.
UniProt P43351: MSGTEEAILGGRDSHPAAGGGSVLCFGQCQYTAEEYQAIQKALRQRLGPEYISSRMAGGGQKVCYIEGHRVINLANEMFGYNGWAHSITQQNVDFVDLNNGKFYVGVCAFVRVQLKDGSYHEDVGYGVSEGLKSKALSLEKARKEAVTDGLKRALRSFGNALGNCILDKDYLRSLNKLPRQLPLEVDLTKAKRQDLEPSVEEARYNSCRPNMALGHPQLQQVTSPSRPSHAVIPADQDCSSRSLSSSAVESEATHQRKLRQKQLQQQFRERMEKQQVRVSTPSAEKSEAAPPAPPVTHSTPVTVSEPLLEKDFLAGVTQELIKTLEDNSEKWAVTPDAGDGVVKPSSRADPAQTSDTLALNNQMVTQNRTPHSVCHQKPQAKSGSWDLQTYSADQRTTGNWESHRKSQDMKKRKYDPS

Where “and” joins values, the source holds several entries; their conditions need not be identical. Identical values can stand only once. About 15 (0.8%) of roughly 1,900 compounds were called active.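 Rule for the calls: active = every replicate shows at least 50% inhibition; inconclusive = mean inhibition at least 50% but some replicate below; inactive = the rest.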 This is one part of the list.

What is called inhibition is the relative decrease from the control value, in per cent.

In the assay the target is DNA repair protein RAD52 homolog (Homo sapiens) (UniProt P43351). Put plainly: RAD52 ssDNA annealing inhibitors, primary screen, biochemical, FRET, single point (AID 651660).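 Note: 0% = median of neutral control wells and 100% = median of positive control wells.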 To be noted: Recombinant RAD52 ssDNA annealing, FRET fluorescence, 30 min; at 18.7 µM; active compounds read high.
Regarding `CC(=O)NS(=O)(=O)c1ccc(N)cc1`, the inhibition is inactive: 0.255%. With `O=C1CC(c2ccc(O)cc2)Oc2cc(O)cc(O)c21` (stereo unspecified), the inhibition was inactive: 4.91%. Take `Cn1cc(CN2CCCC(CO)(Cc3cccc(Cl)c3)C2)cn1` (stereo unspecified): the inhibition was inactive: -3.54%. As for `O=C(O)c1ccc(-c2ccc(O)c(F)c2)cc1`, the inhibition is inactive: -3.36%.

On to `Cc1cc(=O)oc2c(CN(C)Cc3ccccc3)c(O)ccc12`, for which the inhibition is inactive: -0.676%.

Consider `CC(C)COC(=O)C1C(=O)CC(C)(O)C(C(=O)OCC(C)C)C1c1cccnc1` (stereo unspecified), for which the inhibition is inactive: 5.4%. Regarding `CCCCOn1c(C)c(C(C)=O)c2c3no[n+]([O-])c3ccc21`, the inhibition is inactive: -14.2%. `NC(=O)C1CCCNC1` (stereo unspecified): the inhibition is inactive: 0.725%. For `COc1ccc(N2C(=O)C3C(C2=O)C(C(=O)c2ccccc2)N2CCCC32)cc1` (stereo unspecified), the inhibition is inactive: -88.5%.

As to `COc1cccc(C2CCCN2Cc2nc(CCC(C)C)no2)c1` (stereo unspecified), the inhibition is inactive: -14.7%. As for `Nc1nc(Cl)nc2c1ncn2[C@@H]1O[C@H](CO)[C@@H](O)[C@H]1O`, the inhibition is inactive: -0.877%. Take `CCOC(=O)c1oc2cc(O)cc(C)c2c(=O)c1-c1cscn1`: the inhibition is inactive: 5.2%.

Take `O=C1N[C@@H](Cc2cnc[nH]2)C(=O)N2CCC[C@@H]12`: the inhibition was inactive: -0.162%. In the case of `C[C@@H]1C[C@H]2[C@@H]3CCC4=CC(=O)C=C[C@]4(C)[C@@]3(F)[C@@H](O)C[C@]2(C)[C@@]1(O)C(=O)COP(=O)(O)O`, the inhibition is inactive: -4.25%. `Cc1ccc(CSCC(=O)NCCCN2CCOCC2)cc1`: the inhibition was inactive: 5.56%.

Turning to `COc1ccc(C(=O)NC(=O)NC2(C(Cl)(Cl)Cl)OCCO2)cc1`, the inhibition was inactive: 1.4%. For `CCn1c(=N)c(C(=O)NC)cc2c(=O)n3cccc(C)c3nc21`, the inhibition is inactive: 40.7%.

Take `O=[N+]([O-])c1ccc2cn[nH]c2c1`: the inhibition was inactive: -3.19%. Consider `CC(=O)C1=C(Nc2ccc(C)cc2)CC(C)(O)C(C(C)=O)C1c1ccco1` (stereo unspecified), for which the inhibition is inactive: -76.2%. As to `CC(C)C12CN3CC(C(C)C)(CN(C1)C3c1ccccc1)C2O` (stereo unspecified), the inhibition was inactive: 0.63%. `OCCN(CCO)c1nc(N2CCCCC2)c2nc(N(CCO)CCO)nc(N3CCCCC3)c2n1`: the inhibition is inactive: -284%. For the compound `COC(=O)[C@H]1[C@H]2C[C@@H]3c4[nH]c5cc(OC)ccc5c4CCN3C[C@H]2C[C@@H](OC(=O)c2ccc(N)cc2)[C@@H]1OC`, the inhibition was inactive: -47.1%. On to `CC(C)CC(NC(=O)CNC(=O)C1O[C@@H]2OC(C)(C)O[C@@H]2[C@H]2OC(C)(C)O[C@@H]12)C(=O)O` (stereo partly specified), for which the inhibition is inactive: -7%. On to `Cc1c(Cc2ccccc2)c(=O)oc2c(CN(C)C)c(O)c(Cl)cc12`, for which the inhibition is inactive: -33.1%. With `COc1ccc(-c2cc(=O)oc3cc(OC(C)C(=O)O)ccc23)cc1` (stereo unspecified), the inhibition is inactive: -15%.

`CSCC[C@H](NC(=O)NC1CCCC1)C(=O)O`: the inhibition was inactive: -5.4%. Regarding `CC(=O)C1=C(NC(=O)c2ccc(C(F)(F)F)cc2)C[C@@H]2[C@H]1C2(C)C`, the inhibition was inactive: 4.2%.

With `COc1ccc(CC(=O)Nc2cccc(C(=O)Nc3ccccc3C(=O)O)c2)cc1OC`, the inhibition was inactive: -17%. As for `CC(C)(C)N1NC2(CCCCC2)NC1=S`, the inhibition is inactive: 9.14%. On to `O=C(O)C1CSC(c2ccco2)N1` (stereo unspecified), for which the inhibition is inactive: -11.6%. For the compound `CCN1C(=O)C(CC(=O)Nc2ccc(F)cc2)N(Cc2ccc3c(c2)OCO3)C1=S` (stereo unspecified), the inhibition is inactive: 8.77%. Take `COc1ccccc1/C=C/C(=O)c1c2c(c(C)[nH]c1=O)CCCC2`: the inhibition is inactive: -7.85%. Under `CN(C)CCOc1ccc(Cl)cc1C(C)(C)C` stands inactive: 7.97%; under `COc1cccc(/C=C/C(=O)c2c(O)cc(C)oc2=O)c1O`, inactive: -38.5%.

`CC(=O)c1c(C)[nH]c(C(=O)OCc2ccccc2)c1C`: the inhibition was inactive: 1.84%. Under `CCc1cc(=O)oc2cc(C)c(CN3CCCC(C)C3)c(O)c12` (stereo unspecified) stands inactive: -71.9%; under `COC(=O)CCC(=O)CN`, inactive: -5.45%. For the compound `COc1ccc2cc(-c3nc4ccccc4n3C)c(=O)oc2c1`, the inhibition is inactive: -12%.

As for `CC1(C)NC(C(=O)O)Cc2c1[nH]c1ccccc21` (stereo unspecified), the inhibition was inactive: -5.7%. Under `O=C(Nc1ccccc1)OCC1CCCN2CCCCC12` (stereo unspecified) stands inactive: 2.17%; under `CC(C)=CCC/C(C)=C/CC/C(C)=N/O`, inactive: -2.54%; under `COc1cc(C2C(C(C)=O)=C(O)C(=O)N2c2ccc(C)cc2)ccc1O` (stereo unspecified), inactive: -13.3%.

For `CC(C)NC(=O)C1(c2ccccc2)CCOCC1`, the inhibition was inactive: -5.21%.

Take `CC(C)OC(=O)C(C)(C)Oc1ccc(C(=O)c2ccc(Cl)cc2)cc1`: the inhibition is inactive: -5.56%. As to `COC(=O)C1[C@H]2C(=O)N(Cc3cccs3)C[C@]23C=C[C@H]1O3` (stereo partly specified), the inhibition is inactive: 4.54%.

For the compound `CN1CCCN(C(c2ccccc2)c2ccc(Cl)cc2)CC1` (stereo unspecified), the inhibition was inactive: 20.1%. With `Nc1ccc(N)c(C(=O)O)c1`, the inhibition is inactive: 5.84%. As for `CCOc1ccc2nc(S(N)(=O)=O)sc2c1`, the inhibition is inactive: -9.33%. With `O=C(O)c1ccccc1O`, the inhibition is inactive: -0.256%. As for `Cc1cc(/C=N/O)c(C)n1-c1ccc(Br)cc1`, the inhibition is inactive: -14.7%. As to `CCNCCC(CCC(C)C)c1ccc2c(c1)OCO2` (stereo unspecified), the inhibition is inactive: 5.63%. Under `C/C(NC(=O)c1cccs1)=C1\C(=O)C[C@@H]2[C@H]1C2(C)C` stands inactive: 1.79%; under `O=P(c1ccccc1)(c1ccccc1)c1nc(-c2ccc(Cl)cc2)oc1N1CCOCC1`, inactive: 7.3%; under `N#C/C(=C\c1ccc(O)c(O)c1)C(=O)NCCCc1ccccc1`, inactive: -77.9%. For the compound `CCOC(=O)C1CCCN(Cc2nc(Cc3cccc(F)c3)no2)C1` (stereo unspecified), the inhibition is inactive: -0.447%. As for `COc1ccc(-c2[nH]ncc2CN(CCO)Cc2cccs2)c(F)c1`, the inhibition is inactive: -3.67%. Turning to `CCOc1ccc(C(=O)NCC2(c3ccccc3)CCOCC2)cc1`, the inhibition is inactive: -5.73%.

Take `O=C(Nc1ccc(Oc2c(F)c(F)c(F)c(F)c2F)cc1)OC1CCN2Cc3ccccc3N=C12` (stereo unspecified): the inhibition was inactive: -1.63%. Under `C/C=C(/C(=C/C)c1ccc(O)cc1)c1ccc(O)cc1` stands inactive: 4.54%; under `COc1ccc(-c2cc3cc(OC)c(OC)cc3c(C)n2)cc1`, inactive: -3.4%; under `Cc1ncc([N+](=O)[O-])n1CC(C)O` (stereo unspecified), inactive: 7.1%. Regarding `COc1ccc2cc([C@H](C)C(=O)O)ccc2c1`, the inhibition is inactive: -8.61%.

For the compound `O=[N+]([O-])c1cc(/C=N/n2cnnc2)ccc1N1CCCC1`, the inhibition was inactive: -0.23%.

For `CCN(CC)c1ccc(C2=NNC(=O)CC2C)cc1[N+](=O)[O-]` (stereo unspecified), the inhibition was inactive: -0.17%. As to `C[C@@H]1C[C@H](Nc2ccccc2)c2ccccc2N1C(=O)c1cccnc1`, the inhibition was inactive: -1.25%. On to `CC1(C)S[C@@H]2[C@H](NC(=O)[C@H](N)c3ccccc3)C(=O)N2[C@H]1C(=O)O`, for which the inhibition is inactive: -8.47%. For `Cc1cc(O)c2/c(=N\N)c(-c3csc(C)n3)coc2c1`, the inhibition is inactive: -11.3%. On to `O=c1n(CCCN2CCN(c3cccc(Cl)c3)CC2)nc2ccccn12`, for which the inhibition was inactive: -1.23%.

With `CC12CCC(C(=O)NNc3ccccc3)(C(=O)C1=O)C2(C)C` (stereo unspecified), the inhibition is inactive: -4.67%. As for `CC(=O)NCCCC(=O)NC(CCC(=O)OCc1ccccc1)C(=O)OCc1ccccc1` (stereo unspecified), the inhibition is inactive: -10.8%. On to `OC12CCCCC1C(c1ccc3c(c1)OCO3)N(Cc1cccc(F)c1)CC2` (stereo unspecified), for which the inhibition was inactive: -0.832%. As to `CC(=O)O[C@H]1CC[C@H]2[C@@H]3CCc4cc(O)ccc4[C@H]3CC[C@]12C`, the inhibition was inactive: 6.46%.

For the compound `CN1[C@@H]2CC(OC(=O)[C@H](CO)c3ccccc3)C[C@H]1[C@@H]1O[C@@H]12` (stereo partly specified), the inhibition is inactive: 1.95% and inactive: -1.71%. For the compound `O=C(NCc1ccc(N2CCCC2=O)cc1)c1ccc(F)cc1`, the inhibition is inactive: -3.3%. Under `O=c1cc(-c2ccc3c(c2)OCCO3)oc2ccc(Cl)cc12` stands inactive: 2.35%. As for `NC(=O)c1cnccn1`, the inhibition was inactive: 4.37%. On to `COc1cc(C(=O)Nc2cccc(-c3nnc(-c4ccco4)o3)c2)ccc1OC(C)=O`, for which the inhibition is inactive: -1.56%. Regarding `CCNC(=S)Nc1ccc(OC(F)(F)F)cc1`, the inhibition is inactive: -1.84%.

Turning to `CCCn1c(=O)c2[nH]c(C3CCCC3)nc2n(CCC)c1=O`, the inhibition is inactive: 7.88%. In the case of `CCOC(=O)n1c(=O)oc2ccccc21`, the inhibition is inactive: -1.8%. On to `O=C(CCNNC(=O)c1ccncc1)NCc1ccccc1`, for which the inhibition was inactive: -0.055%.

As to `Cc1nc2ccccn2c(=O)c1CCN1CCC(C(=O)c2ccc(F)cc2)CC1`, the inhibition was inactive: -13%. For the compound `Oc1[nH]c2ccccc2c1C1=NCCCC1`, the inhibition was inactive: -32.8%. Turning to `COc1ccc(-c2noc(CCc3ccccc3)n2)cc1`, the inhibition is inactive: -6.01%.

With `C=C(C)[C@@H]1CC=C(CN2CCC(N3CCC(C(=O)N4CCCC4)CC3)CC2)CC1`, the inhibition was inactive: -15.3%. Under `COc1cc2c(cc1NCc1ccc3c(c1)OCO3)oc1ccccc12` stands inactive: -8.67%; under `CC(C)C[C@H](NC(=O)[C@@H]1Cc2ccccc2CN1C(=O)OC(C)(C)C)C(=O)NCC1CCC(C(=O)O)CC1` (stereo partly specified), inactive: 7.04%; under `COC(=O)c1ccc(=O)n(Cc2ccco2)c1`, inactive: -5.57%. Regarding `O=C(Nc1cccc(Oc2c(F)c(F)c(F)c(F)c2F)c1)N1C[C@@H]2C[C@@H](C1)c1cccc(=O)n1C2`, the inhibition is inactive: 3.99%. In the case of `Cn1c(=O)[nH]c(=O)c2c1nc(Br)n2CCCO`, the inhibition is inactive: -8.48%. Turning to `N/C(=N\OC(=O)c1ccc(Br)o1)c1ccccn1`, the inhibition was inactive: -4.88%.

On to `COc1cccc(OC2OC3COC(C)(C)OC3C(O)C2NC(C)=O)c1` (stereo unspecified), for which the inhibition was inactive: 0.119%.

With `Nc1ccc(S(=O)(=O)NC(=O)c2ccccc2)cc1`, the inhibition is inactive: 5.18%. For `C=C(CC)C(=O)c1ccc(OCC(=O)O)c(Cl)c1Cl`, the inhibition is inactive: -11.1%. Turning to `CCC(C)NCCOc1ccc(C(C)(C)c2ccccc2)cc1` (stereo unspecified), the inhibition was inactive: 32%.

Consider `O=C(NCCc1ccccc1)C1CCN(C2CCN(Cc3ccco3)CC2)CC1`, for which the inhibition is inactive: -15.9%.
